The values below come from patent publication US4250255A, “Assay method for isoenzyme activity” (Eastman Kodak Company, priority 1977, dated 1981).

The target of assay [1] is T1, LD1 (Sus scrofa, UniProt P00336). Briefly: Effect of cationic amphiphiles on the activity of LDH isoenzymes (Table 1). Format: biochemical. The method, then: (§1) The assay for LDH activity in both the absence and presence of surfactant was conducted as follows. […] The resulting solution contains approximately 5 units/ml. […] To the equilibrated solution […]. of the enzyme solution was added, and the cuvette was rapidly shaken while covering the top of the cuvette with a small piece of Parafilm® and placed back into the spectrophotometer.
(§2) Amphiphile solutions were prepared by weighing out a given amount of amphiphile, e.g., 100 mg, and preparing a stock solution in 30 mM sodium phosphate buffer in 100 ml. volumetric flask. Solutions of lower amphiphile concentration were prepared by making the appropriate dilutions from the stock solution.
A number of cationic amphiphiles were investigated for specific inactivation of LD1 in the presence of LD5 and these compounds are listed in Table 1.

Assay [2] has as its target T1, LD1. As to the kind of experiment: LDH activity assay with amphiphile, LDH isoenzymes. As to conditions: read-out: amphiphile concentration for complete inactivation of LD1. Details: porcine LDH, LD1, LD2, LD3, LD4 and LD5 in the form of ammonium sulfate suspensions. Format: biochemical, porcine. The method, then:
(§3) 3. Beef heart LDH (Sigma Chemical Co., Type III), rabbit muscle LDH (Sigma Chemical Co., Type V) and porcine LDH, LD1, LD2, LD3, LD4 and LD5 in the form of ammonium sulfate suspensions were used for these examples.
as §1, §2

The next assay addresses LD5 (Sus scrofa, UniProt P00339). As to the kind of experiment: LDH activity assay with amphiphile, LDH isoenzymes. Format: biochemical, porcine. More on the design: LD5 from two different species, i.e., rabbit muscle and hog muscle; from tissue; host or cells: hog muscle. The protocol:
as §3, §1, §2

For a further assay, the target named is T2, LD2 (Sus scrofa, UniProt P00336+P00339).
T2 construct: porcine LDH, LD1, LD2, LD3, LD4 and LD5 in the form of ammonium sulfate suspensions
As to the kind of experiment: LDH activity assay with amphiphile, LDH isoenzymes. Format: biochemical, porcine. As to conditions: read-out: amphiphile concentration for complete inactivation of LD2. The protocol: as §3, §1, §2

In a further assay the target is T3, LD4 (Sus scrofa, UniProt P00336+P00339).
T3 construct: porcine LDH, LD1, LD2, LD3, LD4 and LD5 in the form of ammonium sulfate suspensions
Briefly: LDH activity assay with amphiphile, LDH isoenzymes. Format: biochemical, porcine. The conditions noted are these: read-out: amphiphile concentration for complete inactivation of LD4. The protocol:
as §3, §1, §2

In another assay the target is T4, LD3 (Sus scrofa, UniProt P00336+P00339).
T4 construct: porcine LDH, LD1, LD2, LD3, LD4 and LD5 in the form of ammonium sulfate suspensions
As to the kind of experiment: LDH activity assay with amphiphile, LDH isoenzymes. Format: biochemical, porcine. As to conditions: read-out: amphiphile concentration for complete inactivation of LD3. The protocol:
as §3, §1, §2

In the case of `CCCCCCCCCCCCCCCC[n+]1ccccc1` [CP, cetylpyridinium bromide], the IC50 (as a rule, the concentration that gives 50% inhibition) against LD1 [1] was found to be 70 µM. Moreover, the IC100 on LD1 [2], on LD2, at LD4 and at LD3 was about 100 µM in each case. In addition, the “LD5 activity lost in the assay” value on LD5 (CP as the amphiphile, assay as Example 5, FIG. 7) is “approximately 30%”. In addition, the remaining activity at 100 µM on LD5 (pH 7.4, read-out: LD5 activity relative to a buffer control) came to 100%.
